This is one part of the list.
Legend:
Assay in all cases: log2 fold change, soluble protein after heating vs DMSO (PISA); higher = thermal stabilisation; K562 cells, 10 uM, 30 min; active = over 0.2 and 3.5 SD of the protein, either way, in both replicates (recomputed)
saracatinib = compound: CN1CCN(CCOc2cc(OC3CCOCC3)c3c(Nc4c(Cl)ccc5c4OCO5)ncnc3c2)CC1 [saracatinib]
Method in brief: (§1)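 K562 cells at 2×10^6 cells/mL were treated for 30 min with 10 μM compound, and aliquots were heated for 3 min over 48°C-58°C before pooling. Extraction used PBS with 0.5% NP-40 at 4°C, and soluble protein was the supernatant after 21,000xg for 90 min, measured by TMTpro 16plex LC-MS/MS with channel sums equalised. Thermal stability values, relative to control samples and from duplicates, are log2 fold changes.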

Amino acid sequences for entries named in this document (tags omitted). A change or cut given only in a name is not applied to a line headed by its entry.
UniProt Q9BUI4: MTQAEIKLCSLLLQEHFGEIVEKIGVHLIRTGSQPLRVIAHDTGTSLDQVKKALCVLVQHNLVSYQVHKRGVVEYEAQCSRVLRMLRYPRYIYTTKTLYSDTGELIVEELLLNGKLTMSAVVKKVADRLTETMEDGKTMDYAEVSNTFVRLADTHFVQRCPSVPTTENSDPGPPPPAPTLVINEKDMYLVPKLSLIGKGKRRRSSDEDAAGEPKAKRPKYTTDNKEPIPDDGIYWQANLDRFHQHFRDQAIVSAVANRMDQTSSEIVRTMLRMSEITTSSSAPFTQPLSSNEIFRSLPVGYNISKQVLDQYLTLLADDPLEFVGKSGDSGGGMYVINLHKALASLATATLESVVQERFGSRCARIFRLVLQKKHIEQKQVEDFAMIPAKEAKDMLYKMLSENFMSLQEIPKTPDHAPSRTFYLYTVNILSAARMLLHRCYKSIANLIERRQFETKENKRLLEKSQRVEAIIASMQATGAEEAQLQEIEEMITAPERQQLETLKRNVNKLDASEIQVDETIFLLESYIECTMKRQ
UniProt O15318: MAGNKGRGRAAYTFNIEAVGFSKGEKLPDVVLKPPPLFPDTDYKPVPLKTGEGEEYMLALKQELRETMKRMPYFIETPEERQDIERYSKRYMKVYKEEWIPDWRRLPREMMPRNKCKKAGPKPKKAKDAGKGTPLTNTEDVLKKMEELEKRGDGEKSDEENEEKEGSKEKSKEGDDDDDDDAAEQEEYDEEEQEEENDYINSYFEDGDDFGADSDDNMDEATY
UniProt O60664: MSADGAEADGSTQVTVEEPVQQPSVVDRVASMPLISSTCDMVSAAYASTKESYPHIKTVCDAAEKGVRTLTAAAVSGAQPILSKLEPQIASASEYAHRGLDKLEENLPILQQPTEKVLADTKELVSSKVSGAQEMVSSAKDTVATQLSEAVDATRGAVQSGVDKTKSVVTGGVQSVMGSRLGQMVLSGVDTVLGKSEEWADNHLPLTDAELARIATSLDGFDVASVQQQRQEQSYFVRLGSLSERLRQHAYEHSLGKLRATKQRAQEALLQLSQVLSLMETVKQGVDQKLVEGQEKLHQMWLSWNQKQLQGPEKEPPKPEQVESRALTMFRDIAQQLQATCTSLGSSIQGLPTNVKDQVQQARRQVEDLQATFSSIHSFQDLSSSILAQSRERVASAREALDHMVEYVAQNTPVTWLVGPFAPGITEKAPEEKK
UniProt Q9HBL7: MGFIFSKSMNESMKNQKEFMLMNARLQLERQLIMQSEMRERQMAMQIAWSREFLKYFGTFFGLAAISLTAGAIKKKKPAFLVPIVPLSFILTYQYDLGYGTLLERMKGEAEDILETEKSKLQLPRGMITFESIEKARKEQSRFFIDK
UniProt Q99541: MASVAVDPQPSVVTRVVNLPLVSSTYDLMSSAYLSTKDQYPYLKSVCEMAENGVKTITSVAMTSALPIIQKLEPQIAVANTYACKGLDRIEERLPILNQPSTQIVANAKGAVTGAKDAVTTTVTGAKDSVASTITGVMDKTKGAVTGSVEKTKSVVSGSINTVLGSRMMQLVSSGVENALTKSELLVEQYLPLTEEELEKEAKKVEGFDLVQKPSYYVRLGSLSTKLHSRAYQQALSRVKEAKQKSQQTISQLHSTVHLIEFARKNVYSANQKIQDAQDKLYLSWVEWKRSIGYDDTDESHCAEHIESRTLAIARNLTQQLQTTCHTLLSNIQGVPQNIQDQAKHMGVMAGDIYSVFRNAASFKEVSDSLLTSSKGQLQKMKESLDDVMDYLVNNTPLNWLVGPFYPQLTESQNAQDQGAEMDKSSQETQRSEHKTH
UniProt Q96HA1, whole entry, looked up: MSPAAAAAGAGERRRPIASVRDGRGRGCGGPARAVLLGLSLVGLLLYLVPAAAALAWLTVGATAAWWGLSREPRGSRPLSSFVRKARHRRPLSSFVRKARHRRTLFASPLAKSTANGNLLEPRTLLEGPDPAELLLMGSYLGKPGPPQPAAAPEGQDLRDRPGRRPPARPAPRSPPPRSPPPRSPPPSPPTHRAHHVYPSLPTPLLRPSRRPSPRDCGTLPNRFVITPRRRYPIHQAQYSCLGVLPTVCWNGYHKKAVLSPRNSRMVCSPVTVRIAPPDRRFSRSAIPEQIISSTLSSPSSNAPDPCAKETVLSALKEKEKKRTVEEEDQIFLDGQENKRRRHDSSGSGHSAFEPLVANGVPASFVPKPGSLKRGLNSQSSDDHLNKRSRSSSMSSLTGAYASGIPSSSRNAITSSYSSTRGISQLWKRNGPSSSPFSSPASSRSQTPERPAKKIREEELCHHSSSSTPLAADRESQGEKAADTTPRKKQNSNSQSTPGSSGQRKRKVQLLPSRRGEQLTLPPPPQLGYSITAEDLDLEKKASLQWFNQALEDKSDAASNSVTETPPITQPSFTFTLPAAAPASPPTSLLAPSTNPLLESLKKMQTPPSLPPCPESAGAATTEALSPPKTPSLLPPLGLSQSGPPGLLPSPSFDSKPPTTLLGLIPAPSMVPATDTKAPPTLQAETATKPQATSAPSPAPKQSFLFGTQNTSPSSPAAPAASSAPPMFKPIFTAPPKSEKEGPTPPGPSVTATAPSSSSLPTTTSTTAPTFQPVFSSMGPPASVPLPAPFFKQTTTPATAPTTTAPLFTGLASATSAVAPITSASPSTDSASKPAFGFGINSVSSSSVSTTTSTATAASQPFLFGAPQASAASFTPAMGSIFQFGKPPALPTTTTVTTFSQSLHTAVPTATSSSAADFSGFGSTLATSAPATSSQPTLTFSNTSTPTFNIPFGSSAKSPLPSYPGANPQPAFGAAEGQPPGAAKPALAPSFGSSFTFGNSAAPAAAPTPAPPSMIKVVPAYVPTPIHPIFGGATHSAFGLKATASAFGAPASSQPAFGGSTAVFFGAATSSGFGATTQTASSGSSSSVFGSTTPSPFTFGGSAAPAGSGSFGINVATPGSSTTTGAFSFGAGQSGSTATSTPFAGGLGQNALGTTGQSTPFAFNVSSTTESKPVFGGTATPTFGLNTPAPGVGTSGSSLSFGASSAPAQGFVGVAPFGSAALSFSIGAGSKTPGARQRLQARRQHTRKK
UniProt Q9NW08: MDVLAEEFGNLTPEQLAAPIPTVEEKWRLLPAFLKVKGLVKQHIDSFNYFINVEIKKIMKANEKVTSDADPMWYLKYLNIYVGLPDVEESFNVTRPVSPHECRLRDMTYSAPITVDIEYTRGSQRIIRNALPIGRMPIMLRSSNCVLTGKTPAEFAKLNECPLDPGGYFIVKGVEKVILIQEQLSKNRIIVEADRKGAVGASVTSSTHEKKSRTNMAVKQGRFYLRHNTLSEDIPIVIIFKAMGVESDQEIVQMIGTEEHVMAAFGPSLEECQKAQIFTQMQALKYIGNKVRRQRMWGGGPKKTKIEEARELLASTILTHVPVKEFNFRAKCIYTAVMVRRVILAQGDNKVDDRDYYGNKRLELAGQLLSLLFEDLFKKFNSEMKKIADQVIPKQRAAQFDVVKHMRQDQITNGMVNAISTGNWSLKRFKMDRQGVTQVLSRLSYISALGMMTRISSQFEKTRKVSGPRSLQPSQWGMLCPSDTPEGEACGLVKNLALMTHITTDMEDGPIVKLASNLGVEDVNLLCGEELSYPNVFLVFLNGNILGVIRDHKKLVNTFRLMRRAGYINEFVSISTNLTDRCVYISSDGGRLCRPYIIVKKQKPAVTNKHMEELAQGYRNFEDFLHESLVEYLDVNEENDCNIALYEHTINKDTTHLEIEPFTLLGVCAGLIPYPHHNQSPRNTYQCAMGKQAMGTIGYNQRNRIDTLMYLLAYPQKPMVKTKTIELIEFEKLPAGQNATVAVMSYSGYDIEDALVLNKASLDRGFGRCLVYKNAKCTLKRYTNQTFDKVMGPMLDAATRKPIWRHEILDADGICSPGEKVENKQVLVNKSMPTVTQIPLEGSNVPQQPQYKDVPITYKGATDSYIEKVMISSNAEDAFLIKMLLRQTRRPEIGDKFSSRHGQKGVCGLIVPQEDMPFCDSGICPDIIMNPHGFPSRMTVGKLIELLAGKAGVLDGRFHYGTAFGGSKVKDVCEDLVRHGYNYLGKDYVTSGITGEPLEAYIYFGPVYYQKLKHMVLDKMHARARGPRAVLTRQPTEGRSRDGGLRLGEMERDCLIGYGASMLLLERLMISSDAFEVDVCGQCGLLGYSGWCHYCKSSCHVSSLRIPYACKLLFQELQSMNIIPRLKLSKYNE
UniProt P28340: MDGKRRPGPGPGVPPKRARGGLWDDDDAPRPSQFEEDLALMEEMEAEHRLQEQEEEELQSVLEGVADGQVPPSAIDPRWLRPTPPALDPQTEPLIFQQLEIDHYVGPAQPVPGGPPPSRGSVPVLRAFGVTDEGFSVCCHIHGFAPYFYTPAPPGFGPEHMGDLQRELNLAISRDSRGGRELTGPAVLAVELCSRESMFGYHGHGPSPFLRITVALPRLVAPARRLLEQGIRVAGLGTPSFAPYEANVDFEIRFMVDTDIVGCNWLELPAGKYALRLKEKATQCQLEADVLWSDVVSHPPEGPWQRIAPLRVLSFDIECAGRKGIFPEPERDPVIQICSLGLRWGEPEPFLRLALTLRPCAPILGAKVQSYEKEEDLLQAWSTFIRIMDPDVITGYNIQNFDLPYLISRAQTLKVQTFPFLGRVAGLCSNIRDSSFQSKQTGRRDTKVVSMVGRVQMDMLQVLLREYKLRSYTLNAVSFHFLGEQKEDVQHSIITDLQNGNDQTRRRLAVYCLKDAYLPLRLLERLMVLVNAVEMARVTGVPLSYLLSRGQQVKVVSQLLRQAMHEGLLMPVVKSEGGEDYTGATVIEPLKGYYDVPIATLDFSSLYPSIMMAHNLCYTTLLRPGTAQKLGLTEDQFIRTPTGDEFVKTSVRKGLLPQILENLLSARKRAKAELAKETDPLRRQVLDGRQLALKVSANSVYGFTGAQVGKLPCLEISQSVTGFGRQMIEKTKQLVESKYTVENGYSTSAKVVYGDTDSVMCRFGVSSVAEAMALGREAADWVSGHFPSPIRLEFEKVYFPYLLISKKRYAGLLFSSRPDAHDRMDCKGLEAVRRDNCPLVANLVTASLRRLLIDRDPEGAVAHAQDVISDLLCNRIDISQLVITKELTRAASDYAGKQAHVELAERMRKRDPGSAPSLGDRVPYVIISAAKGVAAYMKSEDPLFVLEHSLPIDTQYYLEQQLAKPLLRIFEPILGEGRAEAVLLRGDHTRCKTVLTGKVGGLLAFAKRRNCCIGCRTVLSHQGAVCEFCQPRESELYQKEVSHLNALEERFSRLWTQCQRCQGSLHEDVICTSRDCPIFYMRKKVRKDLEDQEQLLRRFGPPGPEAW
UniProt Q08752, whole entry, looked up: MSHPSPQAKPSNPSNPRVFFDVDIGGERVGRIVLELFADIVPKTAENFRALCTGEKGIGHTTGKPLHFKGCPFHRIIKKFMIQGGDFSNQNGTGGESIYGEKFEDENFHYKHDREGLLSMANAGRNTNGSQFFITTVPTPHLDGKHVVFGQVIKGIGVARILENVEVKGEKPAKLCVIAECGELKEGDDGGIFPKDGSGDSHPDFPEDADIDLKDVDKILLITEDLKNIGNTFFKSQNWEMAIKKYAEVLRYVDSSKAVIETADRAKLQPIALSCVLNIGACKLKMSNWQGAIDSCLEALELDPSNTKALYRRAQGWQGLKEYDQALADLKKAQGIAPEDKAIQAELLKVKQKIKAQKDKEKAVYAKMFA
UniProt P0CAP2, whole entry, looked up: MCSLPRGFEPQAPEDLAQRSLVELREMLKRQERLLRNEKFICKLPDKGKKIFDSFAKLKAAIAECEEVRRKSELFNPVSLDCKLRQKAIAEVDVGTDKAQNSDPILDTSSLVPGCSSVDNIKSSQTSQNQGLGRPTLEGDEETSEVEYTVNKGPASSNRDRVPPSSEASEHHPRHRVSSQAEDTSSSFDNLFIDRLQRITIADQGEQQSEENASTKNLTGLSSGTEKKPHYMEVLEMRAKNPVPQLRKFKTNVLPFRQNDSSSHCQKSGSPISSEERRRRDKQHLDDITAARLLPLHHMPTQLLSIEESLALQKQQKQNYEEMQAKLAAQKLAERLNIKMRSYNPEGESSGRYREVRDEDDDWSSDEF
UniProt O15162: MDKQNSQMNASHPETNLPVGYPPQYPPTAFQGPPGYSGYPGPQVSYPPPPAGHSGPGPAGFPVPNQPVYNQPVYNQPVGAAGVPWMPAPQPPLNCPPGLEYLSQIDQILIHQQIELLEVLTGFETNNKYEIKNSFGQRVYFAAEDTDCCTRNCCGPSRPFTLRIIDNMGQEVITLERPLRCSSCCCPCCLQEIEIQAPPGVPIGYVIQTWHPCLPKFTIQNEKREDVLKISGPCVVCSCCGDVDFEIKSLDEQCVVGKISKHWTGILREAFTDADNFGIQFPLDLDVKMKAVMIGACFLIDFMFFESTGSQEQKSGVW
UniProt Q9Y2Y1: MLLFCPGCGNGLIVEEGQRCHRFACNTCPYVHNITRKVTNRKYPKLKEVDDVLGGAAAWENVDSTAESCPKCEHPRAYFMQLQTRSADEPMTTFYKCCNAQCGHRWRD

sotrastaurin = compound: CN1CCN(c2nc(C3=C(c4c[nH]c5ccccc45)C(=O)NC3=O)c3ccccc3n2)CC1 [sotrastaurin]
Method in brief: as §1

alvocidib = compound: CN1CC[C@H](c2c(O)cc(O)c3c(=O)cc(-c4ccccc4Cl)oc23)[C@H](O)C1 [alvocidib]
Method in brief: as §1

Tubastatin A = compound: CN1CCc2c(c3ccccc3n2Cc2ccc(C(=O)NO)cc2)C1 [Tubastatin A]
Method in brief: as §1

[1] = compound: CNC(=O)C1=CC=CC=C1NC2=NC(=NC=C2Cl)NC3=C(C=C(C=C3)N4CCOCC4)OC
Method in brief: as §1

defactinib = compound: CNC(=O)c1ccc(Nc2ncc(C(F)(F)F)c(NCc3nccnc3N(C)S(C)(=O)=O)n2)cc1 [defactinib]
Method in brief: as §1

rucaparib = compound: CNCc1ccc(-c2[nH]c3cc(F)cc4c3c2CCNC4=O)cc1 [rucaparib]
Method in brief: as §1

[2] = compound: CNc1nc(-c2ccc3c(N)n[nH]c3c2)cc(N2C[C@@H](C(=O)NC3CCCCC3)CC[C@H]2C)n1
Method in brief: as §1

encorafenib = compound: COC(=O)N[C@@H](C)CNc1nccc(-c2cn(C(C)C)nc2-c2cc(Cl)cc(NS(C)(=O)=O)c2F)n1 [encorafenib]
Method in brief: as §1

[3] = compound: COC(=O)[C@H](CCSC)NC(=O)C1=C(C=C(C=C1)NC[C@H](CS)N)C2=CC=CC=C2
Method in brief: as §1

Measured: log2 fold change

POLR3C (UniProt Q9BUI4)
inactive: saracatinib 0.036 | sotrastaurin 0.004 | alvocidib -0.07 | Tubastatin A 0.018 | [1] -0.039 | defactinib -0.085 | rucaparib -0.013 | [2] -0.073 | encorafenib -0.06 | [3] -0.016

POLR3G (UniProt O15318)
inactive: saracatinib -0.041 | sotrastaurin -0.012 | alvocidib -0.026 | Tubastatin A -0.07 | [1] -0.018 | defactinib -0.062 | rucaparib -0.033 | [2] -0.052 | encorafenib 0.028 | [3] -0.029

PNMT (UniProt P11086)
inactive: saracatinib -0.318 | sotrastaurin -0.02 | alvocidib -0.315 | Tubastatin A 0.028 | [1] 0.107 | [2] 0.062

PLIN3 (UniProt O60664)
inactive: saracatinib 0.047 | sotrastaurin -0.003 | alvocidib -0.02 | Tubastatin A -0.017 | [1] 0 | defactinib -0.009 | rucaparib -0.072 | [2] -0.052 | encorafenib -0.004 | [3] 0.025

PLGRKT (UniProt Q9HBL7)
inactive: saracatinib 0.086 | sotrastaurin 0.051 | alvocidib -0.01 | Tubastatin A -0.029 | [1] -0.001 | rucaparib -0.104 | [2] -0.086 | encorafenib -0.126

POFUT1 (UniProt Q9H488)
inactive: saracatinib 0.009 | sotrastaurin 0.027 | alvocidib 0.034 | Tubastatin A 0.132 | [1] 0.009 | defactinib 0.04 | rucaparib -0.014 | [2] -0.042 | encorafenib -0.012 | [3] 0

PLIN2 (UniProt Q99541)
inactive: saracatinib -0.033 | sotrastaurin -0.243 | Tubastatin A 0.015 | [1] 0.026 | defactinib -0.006 | rucaparib -0.012 | [2] -0.001 | encorafenib 0.002 | [3] 0.047

POM121 (UniProt Q96HA1)
inactive: saracatinib -0.043 | sotrastaurin -0.024 | Tubastatin A 0.083 | [1] 0.126 | defactinib 0.045 | rucaparib 0.069 | [2] 0 | encorafenib 0.075 | [3] -0.002

PNPLA8 (UniProt Q9NP80)
inactive: saracatinib 0.022 | sotrastaurin 0.052 | Tubastatin A -0.009 | [1] -0.021 | defactinib -0.051 | rucaparib 0.038 | [2] -0.016 | encorafenib 0.026 | [3] -0.01

Looked up one by one from above, 2 records:
POM121 (UniProt Q96HA1)
inactive: saracatinib -0.043 | sotrastaurin -0.024 | Tubastatin A 0.083 | [1] 0.126 | defactinib 0.045 | rucaparib 0.069 | [2] 0 | encorafenib 0.075 | [3] -0.002

PLGRKT (UniProt Q9HBL7)
inactive: saracatinib 0.086 | sotrastaurin 0.051 | alvocidib -0.01 | Tubastatin A -0.029 | [1] -0.001 | rucaparib -0.104 | [2] -0.086 | encorafenib -0.126

The list continues:

POLR3B (UniProt Q9NW08)
inactive: saracatinib -0.056 | sotrastaurin -0.129 | Tubastatin A -0.045 | [1] -0.004 | defactinib -0.03 | rucaparib -0.032 | [2] -0.047 | encorafenib 0.039 | [3] -0.028

PLTP (UniProt P55058)
inactive: saracatinib 0.046 | sotrastaurin 0.05 | alvocidib 0.038 | [1] 0.055 | defactinib -0.002 | rucaparib -0.117 | [2] -0.035 | encorafenib 0.053 | [3] 0.042

POLD1 (UniProt P28340)
inactive: saracatinib 0.018 | sotrastaurin -0.052 | Tubastatin A 0.055 | [1] -0.01 | defactinib -0.115 | rucaparib -0.004 | [2] -0.004 | encorafenib 0.131 | [3] -0.029

PPID (UniProt Q08752)
inactive: saracatinib -0.137 | sotrastaurin -0.178 | Tubastatin A 0.051 | [1] 0.044 | defactinib -0.101 | rucaparib 0.135 | [2] 0.042 | encorafenib 0.142 | [3] -0.052

POLR2M (UniProt P0CAP2)
inactive: saracatinib 0.061 | sotrastaurin 0.019 | Tubastatin A 0.005 | [1] -0.015 | defactinib 0.041 | rucaparib 0.05 | [2] -0.021 | encorafenib 0.092 | [3] 0.017

PLSCR1 (UniProt O15162)
inactive: saracatinib 0.052 | sotrastaurin 0.024 | Tubastatin A 0.025 | [1] -0.058 | defactinib 0.006 | rucaparib -0.015 | [2] 0.082 | encorafenib -0.006 | [3] 0.006

POLR3K (UniProt Q9Y2Y1)
inactive: saracatinib 0.052 | sotrastaurin -0.049 | Tubastatin A 0.044 | [1] -0.035 | defactinib -0.086 | rucaparib 0.089 | [2] -0.098 | encorafenib -0.019 | [3] 0.015

Source: the supplement of paper PMC10849652
